Results published in US20220098681A1.
These are yes or no findings as the source states them, for the method shown. In cells and extracts the contact can be indirect. Some results given as binding are weak or reduced against the parent protein; the word gives no strength.

Target: T1, G3BP2 (UniProt Q9UN86)
T1 sequence: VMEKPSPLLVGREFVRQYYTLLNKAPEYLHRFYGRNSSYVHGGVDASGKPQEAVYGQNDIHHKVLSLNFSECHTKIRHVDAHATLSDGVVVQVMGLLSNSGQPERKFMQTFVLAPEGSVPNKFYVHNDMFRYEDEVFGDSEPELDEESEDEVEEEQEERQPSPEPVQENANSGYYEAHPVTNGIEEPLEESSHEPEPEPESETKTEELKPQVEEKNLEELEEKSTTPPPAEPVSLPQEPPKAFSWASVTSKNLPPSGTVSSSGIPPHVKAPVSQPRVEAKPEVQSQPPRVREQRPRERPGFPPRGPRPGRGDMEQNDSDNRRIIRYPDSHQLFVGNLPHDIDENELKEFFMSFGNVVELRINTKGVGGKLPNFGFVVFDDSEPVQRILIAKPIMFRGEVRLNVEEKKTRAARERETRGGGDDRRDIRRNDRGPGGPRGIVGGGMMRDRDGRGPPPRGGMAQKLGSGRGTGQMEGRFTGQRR
Test: co-immunoprecipitation in ΔFHL1 cells

FLAG-tagged CHIKV nsP3 (pCI-neo-3×FLAG plasmid expressing the CHIKV nsP3) (from UniProt Q8JUX6 1334-1856)
binding: binds
